PubChem BioAssay AID1259308, NCATS, 2017

Assay: 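Knock-downs that increase output of a recombinant reporter protein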 (primary screen)
Cells: human HEK293 embryonic kidney cells stably expressing firefly luciferase (HEK-CMV-Luc2-Hygro)
Knock-down reagent: single siRNA against human genes, 0.8 pmol siRNA per well
Time to read-out: 72 h
Measurement: 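Luciferase light (ONE-Glo) measured on one replicate plate set and viability (CellTiter-Glo) on the other, scaled to a negative control siRNA, with robust z-scores and luciferase per cell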
Reading the numbers: total luciferase, z-score and total luciferase, % of control: higher = more reporter protein produced; luciferase per cell, z-score: higher = more reporter output per viable cell
Rule for the call: 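An siRNA counts as active if its total luciferase robust z-score exceeds 3; genes with two or more such siRNAs out of three were retested with fresh siRNAs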
Calls: active = raised luciferase; inactive = no rise
This is a random part of about 59,000 deposited reagents. About 1,510 of them (2.6%) were called active. 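Calls use total luciferase alone and ignore viability, so some active siRNAs may act by altering cell number.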 The numbers tell different reagents against one gene apart. Further read-outs or replicates are left out here.

gene,reagent,"total luciferase, z-score","total luciferase, % of control","luciferase per cell, z-score",activity call
"PCDHGB5 (protocadherin gamma subfamily B, 5)",1,-0.716,67.6,-0.415,inactive
"PCDHGB5 (protocadherin gamma subfamily B, 5)",2,-0.218,77.5,-0.514,inactive
"PCDHGB5 (protocadherin gamma subfamily B, 5)",3,0.0723,83.3,-0.00695,inactive
LILRB5 (leukocyte immunoglobulin like receptor B5),1,-0.0387,81.1,-0.767,inactive
LILRB5 (leukocyte immunoglobulin like receptor B5),2,0.846,98.7,1.53,inactive
LILRB5 (leukocyte immunoglobulin like receptor B5),3,-0.685,68.3,-0.213,inactive
VPS26A (VPS26 retromer complex component A),1,1.07,103,1.05,inactive
VPS26A (VPS26 retromer complex component A),2,1.32,108,1.67,inactive
VPS26A (VPS26 retromer complex component A),3,-0.518,71.6,-0.593,inactive
SIX2 (SIX homeobox 2),1,0.585,93.5,0.179,inactive
SIX2 (SIX homeobox 2),2,-0.219,77.5,-0.468,inactive
SIX2 (SIX homeobox 2),3,0.407,90,0.184,inactive
TP53I13 (tumor protein p53 inducible protein 13),1,2.11,124,1.74,inactive
TP53I13 (tumor protein p53 inducible protein 13),2,0.228,86.4,0.605,inactive
TP53I13 (tumor protein p53 inducible protein 13),3,-0.696,68.1,-0.178,inactive
GASK1B (golgi associated kinase 1B),1,-0.173,78.4,0.251,inactive
GASK1B (golgi associated kinase 1B),2,-0.876,64.5,-0.923,inactive
GASK1B (golgi associated kinase 1B),3,-0.145,79,1.85,inactive
"ABRAXAS2 (abraxas 2, BRISC complex subunit)",1,0.193,85.7,-0.316,inactive
"ABRAXAS2 (abraxas 2, BRISC complex subunit)",2,-0.804,65.9,-0.211,inactive
"ABRAXAS2 (abraxas 2, BRISC complex subunit)",3,-0.242,77.1,-0.527,inactive
PLA2G4E (phospholipase A2 group IVE),1,0.203,85.9,0.162,inactive
PLA2G4E (phospholipase A2 group IVE),2,0.123,84.3,0.154,inactive
PLA2G4E (phospholipase A2 group IVE),3,-0.851,65,-0.171,inactive
KCMF1 (potassium channel modulatory factor 1),1,1.7,116,0.637,inactive
KCMF1 (potassium channel modulatory factor 1),2,0.673,95.3,0.244,inactive
KCMF1 (potassium channel modulatory factor 1),3,0.0386,82.7,0.0514,inactive
RBM20 (RNA binding motif protein 20),1,-0.374,74.4,0.745,inactive
RBM20 (RNA binding motif protein 20),2,-0.354,74.8,-0.162,inactive
RBM20 (RNA binding motif protein 20),3,-0.403,73.9,-0.94,inactive
FCHSD2 (FCH and double SH3 domains 2),1,0.681,95.4,0.222,inactive
FCHSD2 (FCH and double SH3 domains 2),2,0.142,84.7,1.97,inactive
FCHSD2 (FCH and double SH3 domains 2),3,0.131,84.5,0.313,inactive
GPR4 (G protein-coupled receptor 4),1,-0.104,79.8,0.681,inactive
GPR4 (G protein-coupled receptor 4),2,-0.292,76.1,-0.677,inactive
GPR4 (G protein-coupled receptor 4),3,1.08,103,1.62,inactive

Copied from the entries so far for reference:
gene,reagent,"total luciferase, z-score","total luciferase, % of control","luciferase per cell, z-score",activity call
VPS26A (VPS26 retromer complex component A),2,1.32,108,1.67,inactive
VPS26A (VPS26 retromer complex component A),3,-0.518,71.6,-0.593,inactive
SIX2 (SIX homeobox 2),1,0.585,93.5,0.179,inactive
SIX2 (SIX homeobox 2),2,-0.219,77.5,-0.468,inactive
SIX2 (SIX homeobox 2),3,0.407,90,0.184,inactive

Next reagents:
gene,reagent,"total luciferase, z-score","total luciferase, % of control","luciferase per cell, z-score",activity call
FAM131B (family with sequence similarity 131 member B),1,0.616,94.1,-0.0204,inactive
FAM131B (family with sequence similarity 131 member B),2,1.27,107,1.85,inactive
FAM131B (family with sequence similarity 131 member B),3,-2.36,34.9,-3.99,inactive
CUL2 (cullin 2),1,-0.444,73.1,-1.04,inactive
CUL2 (cullin 2),2,0.0607,83.1,-0.144,inactive
CUL2 (cullin 2),3,1.2,106,0.243,inactive
COG8 (component of oligomeric golgi complex 8),1,-0.502,71.9,-0.712,inactive
COG8 (component of oligomeric golgi complex 8),2,3.17,145,1.82,active
COG8 (component of oligomeric golgi complex 8),3,2.44,130,1.64,inactive
ZMAT5 (zinc finger matrin-type 5),1,-0.931,63.4,-0.509,inactive
ZMAT5 (zinc finger matrin-type 5),2,-1.39,54.1,-0.395,inactive
ZMAT5 (zinc finger matrin-type 5),3,-0.902,64,-1.64,inactive
FGFR4 (fibroblast growth factor receptor 4),1,-1.44,53.3,-0.0961,inactive
FGFR4 (fibroblast growth factor receptor 4),2,-1.14,59.1,-1.44,inactive
FGFR4 (fibroblast growth factor receptor 4),3,-0.346,75,-0.911,inactive
PEX7 (peroxisomal biogenesis factor 7),1,0.627,94.4,0.559,inactive
PEX7 (peroxisomal biogenesis factor 7),2,2.4,130,1.34,inactive
PEX7 (peroxisomal biogenesis factor 7),3,0.344,88.7,-0.0412,inactive
SPAAR (small regulatory polypeptide of amino acid response),1,-0.908,63.8,-0.698,inactive
SPAAR (small regulatory polypeptide of amino acid response),2,-0.499,72,-0.62,inactive
SPAAR (small regulatory polypeptide of amino acid response),3,5.93,200,3.28,active
